From patent US20250228880A1, “REDOX-ACTIVE COMPOUNDS AND RELATED COMPOUNDS, COMPOSITIONS, METHODS AND SYSTEMS” (CALIFORNIA INSTITUTE OF TECHNOLOGY, priority 2008, published 2025)
No dose or concentration is given here for some results.

Test system: P. aeruginosa PA14 Δphz mutant
Assay: Redox cycling between Δphz cells and working electrode (anodic current, charge transferred, Faraday's law)
Assay type: cell-based, Pseudomonas aeruginosa
Details: in the presence of phenazine, within 2 hours; background 5-10 μA

| SMILES | anodic current |
| --- | --- |
| Oc1cccc2nc3ccccc3nc12 [1-OHPHZ, 1-hydroxyphenazine] | 45±10 μA |
| O=C(O)c1cccc2nc3ccccc3nc12 [PCA, phenazine-1-carboxylic acid] | 80±10 μA |
| C[n+]1c2ccccc2nc2c([O-])cccc21 [PYO, Pyocyanin] | 80±10 μA |
